Laboratory results as given in patent US6949506B2 (BAS Medical, Inc., priority 1995, dated 2005).

Legend:
[1] = general procedure: hybrid (solid and solution phase) peptide synthesis; [4-(oxymethylphenylacetamidomethyl]resin (B chain); p-benzyloxybenzyl resin (A chain)
[2] = general procedure: hybrid (solid and solution phase) peptide synthesis; p-benzyloxybenzyl resin; conditions: whole synthesis, scale 0.25 mmol

Relaxin-like factor (alpha AAATNPARYCCLSGCTQQDLLTLCPY; beta PTPEMREKLCGHHFVRALVRVCGGPRWSTEA; three disulfide links; H. sapiens)
oxidative folding yield ([1]; oxidative folding step): 36.8%
isolated yield ([1]; whole synthesis, overall, scale of the general procedure 0.4 mmol (B chain), 0.25 mmol (A chain)): 14.9%

A chain(acetamidomethylA10, 4-methylbenzylA24)
crude mass [2]: 372.3 mg
isolated mass ([1]; whole synthesis, overall, scale 0.25 mmol): 166.5 mg
